Source: doi:10.1101/2025.10.15.682441
Read-outs that look alike come from different tables or passages of the source. No constants are given. Whether binding was seen depends on the method and setting. Binding seen in cells or lysates may run through a third protein. These calls come from enrichment with a bait or labelling near it, and not all partners need be listed. Each block holds one molecule with its values, some of them ahead of it.

Sequences of proteins named here, by UniProt entry; tags and fusion partners are left off. A change or cut given only in a name is not applied to a line headed by its entry.
UniProt Q9UHD9: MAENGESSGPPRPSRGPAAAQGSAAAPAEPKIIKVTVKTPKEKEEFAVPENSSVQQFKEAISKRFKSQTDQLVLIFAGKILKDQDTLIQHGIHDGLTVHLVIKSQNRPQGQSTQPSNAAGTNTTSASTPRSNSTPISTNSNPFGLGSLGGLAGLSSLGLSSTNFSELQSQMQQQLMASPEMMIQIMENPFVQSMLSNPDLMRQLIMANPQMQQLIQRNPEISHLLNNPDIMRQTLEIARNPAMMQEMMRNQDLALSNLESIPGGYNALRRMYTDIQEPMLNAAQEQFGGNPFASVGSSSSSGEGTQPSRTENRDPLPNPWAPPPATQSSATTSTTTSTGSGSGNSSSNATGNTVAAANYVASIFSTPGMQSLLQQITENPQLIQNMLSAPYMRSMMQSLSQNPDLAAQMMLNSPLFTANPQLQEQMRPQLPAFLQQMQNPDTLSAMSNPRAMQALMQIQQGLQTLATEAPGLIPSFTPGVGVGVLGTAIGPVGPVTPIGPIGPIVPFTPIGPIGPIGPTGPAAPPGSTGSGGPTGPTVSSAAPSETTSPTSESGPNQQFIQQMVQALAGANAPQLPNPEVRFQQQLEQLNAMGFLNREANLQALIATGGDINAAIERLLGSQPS
UniProt Q01484: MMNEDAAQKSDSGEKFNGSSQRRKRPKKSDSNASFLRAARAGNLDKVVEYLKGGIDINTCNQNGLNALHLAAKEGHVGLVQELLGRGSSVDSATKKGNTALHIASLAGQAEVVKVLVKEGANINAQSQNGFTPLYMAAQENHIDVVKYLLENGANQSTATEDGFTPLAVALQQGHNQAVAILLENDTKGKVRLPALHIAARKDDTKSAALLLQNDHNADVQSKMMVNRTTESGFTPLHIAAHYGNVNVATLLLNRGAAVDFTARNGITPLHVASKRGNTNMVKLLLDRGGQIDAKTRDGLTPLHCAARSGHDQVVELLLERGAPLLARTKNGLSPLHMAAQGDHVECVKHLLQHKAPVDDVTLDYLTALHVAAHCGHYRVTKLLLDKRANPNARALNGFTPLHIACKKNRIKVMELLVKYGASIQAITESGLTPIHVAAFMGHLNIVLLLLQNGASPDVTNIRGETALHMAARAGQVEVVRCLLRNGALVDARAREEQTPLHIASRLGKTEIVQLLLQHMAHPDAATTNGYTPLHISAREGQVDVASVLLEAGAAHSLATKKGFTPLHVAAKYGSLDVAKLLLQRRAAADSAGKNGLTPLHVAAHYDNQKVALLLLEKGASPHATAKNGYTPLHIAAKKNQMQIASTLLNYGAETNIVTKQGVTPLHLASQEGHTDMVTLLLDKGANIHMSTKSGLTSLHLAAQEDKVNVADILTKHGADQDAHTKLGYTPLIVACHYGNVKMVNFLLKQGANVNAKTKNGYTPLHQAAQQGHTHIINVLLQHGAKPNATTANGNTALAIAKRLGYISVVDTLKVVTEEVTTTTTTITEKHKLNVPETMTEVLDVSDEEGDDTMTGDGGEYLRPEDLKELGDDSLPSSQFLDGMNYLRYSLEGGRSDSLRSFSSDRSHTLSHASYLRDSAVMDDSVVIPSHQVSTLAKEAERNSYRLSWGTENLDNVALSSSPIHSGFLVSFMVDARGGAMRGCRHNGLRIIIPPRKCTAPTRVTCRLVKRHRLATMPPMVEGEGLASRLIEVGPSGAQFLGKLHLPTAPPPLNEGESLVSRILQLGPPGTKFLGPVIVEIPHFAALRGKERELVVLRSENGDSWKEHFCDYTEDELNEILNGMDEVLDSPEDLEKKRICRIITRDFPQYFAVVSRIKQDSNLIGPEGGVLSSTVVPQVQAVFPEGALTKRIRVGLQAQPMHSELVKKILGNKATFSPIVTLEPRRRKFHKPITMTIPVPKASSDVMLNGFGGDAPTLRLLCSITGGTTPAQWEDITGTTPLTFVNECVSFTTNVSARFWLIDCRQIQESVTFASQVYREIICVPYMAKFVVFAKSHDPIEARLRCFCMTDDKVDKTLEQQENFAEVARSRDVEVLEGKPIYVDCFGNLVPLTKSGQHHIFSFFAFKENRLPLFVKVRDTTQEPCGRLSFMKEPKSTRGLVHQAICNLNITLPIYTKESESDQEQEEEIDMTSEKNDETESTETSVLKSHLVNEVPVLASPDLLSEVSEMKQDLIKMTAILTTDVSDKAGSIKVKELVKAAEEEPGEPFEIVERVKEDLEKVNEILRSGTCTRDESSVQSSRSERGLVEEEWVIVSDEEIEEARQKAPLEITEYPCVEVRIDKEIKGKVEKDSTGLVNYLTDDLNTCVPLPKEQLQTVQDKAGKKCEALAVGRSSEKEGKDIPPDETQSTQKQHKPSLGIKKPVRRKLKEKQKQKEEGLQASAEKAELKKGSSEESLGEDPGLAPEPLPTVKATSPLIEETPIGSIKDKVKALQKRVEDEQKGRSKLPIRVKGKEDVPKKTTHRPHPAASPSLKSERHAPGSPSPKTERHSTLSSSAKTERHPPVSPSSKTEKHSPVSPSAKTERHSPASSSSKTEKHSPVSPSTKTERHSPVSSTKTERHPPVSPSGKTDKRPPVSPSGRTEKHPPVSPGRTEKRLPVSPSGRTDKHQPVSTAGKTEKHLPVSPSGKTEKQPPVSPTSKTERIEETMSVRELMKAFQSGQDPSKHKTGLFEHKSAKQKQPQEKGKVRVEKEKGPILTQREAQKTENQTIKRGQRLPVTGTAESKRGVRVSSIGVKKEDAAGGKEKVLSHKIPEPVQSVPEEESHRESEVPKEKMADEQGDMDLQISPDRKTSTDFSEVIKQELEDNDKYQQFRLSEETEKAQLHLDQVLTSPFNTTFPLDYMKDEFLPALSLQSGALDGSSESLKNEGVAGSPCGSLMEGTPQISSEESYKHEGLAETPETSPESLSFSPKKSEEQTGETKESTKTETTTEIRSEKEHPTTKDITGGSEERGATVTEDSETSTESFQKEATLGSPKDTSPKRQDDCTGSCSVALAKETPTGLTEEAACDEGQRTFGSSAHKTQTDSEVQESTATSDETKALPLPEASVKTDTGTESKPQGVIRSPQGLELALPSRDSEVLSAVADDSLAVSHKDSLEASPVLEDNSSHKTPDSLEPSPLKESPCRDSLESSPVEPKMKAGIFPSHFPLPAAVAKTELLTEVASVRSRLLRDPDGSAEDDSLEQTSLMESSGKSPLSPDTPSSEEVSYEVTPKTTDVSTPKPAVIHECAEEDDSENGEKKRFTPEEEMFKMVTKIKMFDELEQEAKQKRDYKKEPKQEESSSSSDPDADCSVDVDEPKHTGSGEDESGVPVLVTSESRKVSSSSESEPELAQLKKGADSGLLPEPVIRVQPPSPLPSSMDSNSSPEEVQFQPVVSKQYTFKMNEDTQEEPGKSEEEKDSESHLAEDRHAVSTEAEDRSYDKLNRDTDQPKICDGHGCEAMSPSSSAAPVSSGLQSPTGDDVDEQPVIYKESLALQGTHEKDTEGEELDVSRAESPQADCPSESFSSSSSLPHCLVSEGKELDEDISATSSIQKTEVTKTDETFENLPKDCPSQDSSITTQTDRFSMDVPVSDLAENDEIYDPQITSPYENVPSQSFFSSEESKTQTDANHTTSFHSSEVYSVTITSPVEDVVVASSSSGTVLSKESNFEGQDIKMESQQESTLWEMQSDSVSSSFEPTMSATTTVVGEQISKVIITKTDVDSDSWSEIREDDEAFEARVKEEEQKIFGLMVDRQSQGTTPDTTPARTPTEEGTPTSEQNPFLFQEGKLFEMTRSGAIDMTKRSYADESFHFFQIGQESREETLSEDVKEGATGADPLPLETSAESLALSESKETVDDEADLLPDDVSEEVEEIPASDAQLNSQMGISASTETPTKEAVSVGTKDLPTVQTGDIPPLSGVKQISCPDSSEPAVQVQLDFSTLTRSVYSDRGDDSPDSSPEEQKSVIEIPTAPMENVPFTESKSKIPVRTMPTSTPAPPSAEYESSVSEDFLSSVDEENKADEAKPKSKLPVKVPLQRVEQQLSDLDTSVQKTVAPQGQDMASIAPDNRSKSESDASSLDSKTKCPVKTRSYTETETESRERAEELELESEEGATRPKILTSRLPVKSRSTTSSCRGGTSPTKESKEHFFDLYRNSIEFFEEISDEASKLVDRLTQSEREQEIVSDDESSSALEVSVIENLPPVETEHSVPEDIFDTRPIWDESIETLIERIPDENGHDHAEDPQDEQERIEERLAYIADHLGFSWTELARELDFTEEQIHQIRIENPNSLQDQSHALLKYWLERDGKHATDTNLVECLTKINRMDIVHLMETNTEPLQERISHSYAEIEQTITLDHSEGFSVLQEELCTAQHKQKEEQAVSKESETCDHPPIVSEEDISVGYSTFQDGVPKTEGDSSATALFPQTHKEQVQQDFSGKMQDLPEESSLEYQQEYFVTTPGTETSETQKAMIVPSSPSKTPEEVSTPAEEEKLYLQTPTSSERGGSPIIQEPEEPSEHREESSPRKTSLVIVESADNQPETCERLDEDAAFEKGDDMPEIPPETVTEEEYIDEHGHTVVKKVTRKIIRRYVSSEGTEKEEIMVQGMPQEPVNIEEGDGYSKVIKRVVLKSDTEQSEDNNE
UniProt Q07812: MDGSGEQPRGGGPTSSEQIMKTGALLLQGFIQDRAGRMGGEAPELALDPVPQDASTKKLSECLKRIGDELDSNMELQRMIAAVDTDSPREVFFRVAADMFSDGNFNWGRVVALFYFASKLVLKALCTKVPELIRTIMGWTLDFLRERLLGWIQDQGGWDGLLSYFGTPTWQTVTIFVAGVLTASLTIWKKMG
UniProt P46379: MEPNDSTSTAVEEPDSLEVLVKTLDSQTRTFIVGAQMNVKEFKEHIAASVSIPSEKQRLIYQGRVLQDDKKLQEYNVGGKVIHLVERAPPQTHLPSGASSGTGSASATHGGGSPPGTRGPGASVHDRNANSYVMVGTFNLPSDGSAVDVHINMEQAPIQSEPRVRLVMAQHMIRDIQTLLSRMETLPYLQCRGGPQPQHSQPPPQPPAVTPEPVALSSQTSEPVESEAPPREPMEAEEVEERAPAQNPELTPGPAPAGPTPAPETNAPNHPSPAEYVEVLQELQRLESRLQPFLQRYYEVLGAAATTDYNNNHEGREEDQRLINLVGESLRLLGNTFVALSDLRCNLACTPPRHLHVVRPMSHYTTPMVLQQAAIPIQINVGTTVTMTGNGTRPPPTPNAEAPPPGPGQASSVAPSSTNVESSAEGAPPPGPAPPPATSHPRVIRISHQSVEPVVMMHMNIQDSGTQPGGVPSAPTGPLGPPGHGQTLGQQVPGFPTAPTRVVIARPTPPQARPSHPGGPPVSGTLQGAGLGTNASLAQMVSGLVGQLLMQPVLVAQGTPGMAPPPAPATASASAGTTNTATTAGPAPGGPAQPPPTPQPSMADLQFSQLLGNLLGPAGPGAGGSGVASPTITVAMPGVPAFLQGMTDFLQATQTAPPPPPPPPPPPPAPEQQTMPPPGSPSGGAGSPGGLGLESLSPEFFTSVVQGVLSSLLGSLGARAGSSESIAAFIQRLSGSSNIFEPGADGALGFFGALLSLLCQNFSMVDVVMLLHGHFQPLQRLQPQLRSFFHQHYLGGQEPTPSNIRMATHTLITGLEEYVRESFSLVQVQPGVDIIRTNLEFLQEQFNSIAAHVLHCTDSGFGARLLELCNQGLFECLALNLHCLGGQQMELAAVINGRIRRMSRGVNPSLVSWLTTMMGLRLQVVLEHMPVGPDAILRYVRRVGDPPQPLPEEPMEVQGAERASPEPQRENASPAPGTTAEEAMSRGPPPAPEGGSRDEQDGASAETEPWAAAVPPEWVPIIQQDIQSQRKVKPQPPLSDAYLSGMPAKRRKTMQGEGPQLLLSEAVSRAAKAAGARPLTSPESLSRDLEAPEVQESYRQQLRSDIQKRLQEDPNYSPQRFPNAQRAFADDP

Tests used:
Assay in all cases: affinity purification with mass spectrometry
[1] = target: Ubiquilin-2 4XALS mutant (UBQLN2^4XALS: P497H, P506T, P509S, P525S) (human (endogenous in iPSCs and iMNs)) (UniProt Q9UHD9)
[2] = target: Ubiquilin-2, wild type (UBQLN2^WT) (human (endogenous in iPSCs and iMNs)) (UniProt Q9UHD9)
[3] = target: Ubiquilin-2 4XALS mutant (UBQLN2^4XALS: P497H, P506T, P509S, P525S) (human (endogenous in iPSCs and iMNs)) (UniProt Q9UHD9); remark: listed apart in the source
[4] = target: Ubiquilin-2, wild type (UBQLN2^WT) (human (endogenous in iPSCs and iMNs)) (UniProt Q9UHD9); remark: listed apart in the source
[5] = target: Ubiquilin-2 P497H clinical mutant (UBQLN2^P497H) (human (endogenous in iPSCs and iMNs)) (UniProt Q9UHD9)
[6] = target: Ubiquilin-2 4XALS mutant (UBQLN2^4XALS: P497H, P506T, P509S, P525S) (human (endogenous in iPSCs and iMNs)) (UniProt Q9UHD9); remark: listed apart in the source
[7] = target: Ubiquilin-2 P497H clinical mutant (UBQLN2^P497H) (human (endogenous in iPSCs and iMNs)) (UniProt Q9UHD9); remark: listed apart in the source

Molecule: ANK2 (from UniProt Q01484 1-3957)
binding [1]: binds

Molecule: BAX (from UniProt Q07812 1-192)
binding [2]: binds

Molecule: BCL2-associated athanogene 6 (BAG6) (from UniProt P46379 1-1132)
binding [3]: binds | binding [1]: binds

B1: Paternally expressed gene 10 (PEG10) (protein, UniProt Q86TG7 1-708)
chain: MTERRRDELSEEINNLREKVMKQSEENNNLQSQVQKLTEENTTLREQVEPTPEDEDDDIELRGAAAAAAPPPPIEEECPEDLPEKFDGNPDMLAPFMAQCQIFMEKSTRDFSVDRVRVCFVTSMMTGRAARWASAKLERSHYLMHNYPAFMMEMKHVFEDPQRREVAKRKIRRLRQGMGSVIDYSNAFQMIAQDLDWNEPALIDQYHEGLSDHIQEELSHLEVAKSLSALIGQCIHIERRLARAAAARKPRSPPRALVLPHIASHHQVDPTEPVGGARMRLTQEEKERRRKLNLCLYCGTGGHYADNCPAKASKSSPAGKLPGPAVEGPSATGPEIIRSPQDDASSPHLQVMLQIHLPGRHTLFVRAMIDSGASGNFIDHEYVAQNGIPLRIKDWPILVEAIDGRPIASGPVVHETHDLIVDLGDHREVLSFDVTQSPFFPVVLGVRWLSTHDPNITWSTRSIVFDSEYCRYHCRMYSPIPPSLPPPAPQPPLYYPVDGYRVYQPVRYYYVQNVYTPVDEHVYPDHRLVDPHIEMIPGAHSIPSGHVYSLSEPEMAALRDFVARNVKDGLITPTIAPNGAQVLQVKRGWKLQVSYDCRAPNNFTIQNQYPRLSIPNLEDQAHLATYTEFVPQIPGYQTYPTYAAYPTYPVGFAWYPVGRDGQGRSLYVPVMITWNPHWYRQPPVPQYPPPQPPPPPPPPPPPPSYSTL
binding [1]: binds

B4: BTBD2 (protein, UniProt Q9BX70 1-525)
chain: MAAGGSGGRASCPPGVGVGPGTGGSPGPSANAAATPAPGNAAAAAAAAAAAAAAPGPTPPAPPGPGTDAQAAGAERAEEAAGPGAAALQREAAYNWQASKPTVQERFAFLFNNEVLCDVHFLVGKGLSSQRIPAHRFVLAVGSAVFDAMFNGGMATTSTEIELPDVEPAAFLALLKFLYSDEVQIGPETVMTTLYTAKKYAVPALEAHCVEFLKKNLRADNAFMLLTQARLFDEPQLASLCLENIDKNTADAITAEGFTDIDLDTLVAVLERDTLGIREVRLFNAVVRWSEAECQRQQLQVTPENRRKVLGKALGLIRFPLMTIEEFAAGPAQSGILVDREVVSLFLHFTVNPKPRVEFIDRPRCCLRGKECSINRFQQVESRWGYSGTSDRIRFSVNKRIFVVGFGLYGSIHGPTDYQVNIQIIHTDSNTVLGQNDTGFSCDGSASTFRVMFKEPVEVLPNVNYTACATLKGPDSHYGTKGLRKVTHESPTTGAKTCFTFCYAAGNNNGTSVEDGQIPEVIFYT
binding [1]: binds

Second part, the molecule after the results:

binding [1]: binds | binding [4]: binds
B2: FAM168A/TCRP1 (protein, UniProt Q92567 1-244)
chain: MNPVYSPVQPGAPYGNPKNMAYTGYPTAYPAAAPAYNPSLYPTNSPSYAPEFQFLHSAYATLLMKQAWPQNSSSCGTEGTFHLPVDTGTENRTYQASSAAFRYTAGTPYKVPPTQSNTAPPPYSPSPNPYQTAMYPIRSAYPQQNLYAQGAYYTQPVYAAQPHVIHHTTVVQPNSIPSAIYPAPVAAPRTNGVAMGMVAGTTMAMSAGTLLTTPQHTAIGAHPVSMPTYRAQGTPAYSYVPPHW

binding [1]: binds | binding [5]: binds | binding [4]: binds | binding [6]: binds | binding [7]: binds
B3: HYOU1 (also known as GRP170) (protein, UniProt Q9Y4L1 33-999)
chain: LAVMSVDLGSESMKVAIVKPGVPMEIVLNKESRRKTPVIVTLKENERFFGDSAASMAIKNPKATLRYFQHLLGKQADNPHVALYQARFPEHELTFDPQRQTVHFQISSQLQFSPEEVLGMVLNYSRSLAEDFAEQPIKDAVITVPVFFNQAERRAVLQAARMAGLKVLQLINDNTATALSYGVFRRKDINTTAQNIMFYDMGSGSTVCTIVTYQMVKTKEAGMQPQLQIRGVGFDRTLGGLEMELRLRERLAGLFNEQRKGQRAKDVRENPRAMAKLLREANRLKTVLSANADHMAQIEGLMDDVDFKAKVTRVEFEELCADLFERVPGPVQQALQSAEMSLDEIEQVILVGGATRVPRVQEVLLKAVGKEELGKNINADEAAAMGAVYQAAALSKAFKVKPFVVRDAVVYPILVEFTREVEEEPGIHSLKHNKRVLFSRMGPYPQRKVITFNRYSHDFNFHINYGDLGFLGPEDLRVFGSQNLTTVKLKGVGDSFKKYPDYESKGIKAHFNLDESGVLSLDRVESVFETLVEDSAEEESTLTKLGNTISSLFGGGTTPDAKENGTDTVQEEEESPAEGSKDEPGEQVELKEEAEAPVEDGSQPPPPEPKGDATPEGEKATEKENGDKSEAQKPSEKAEAGPEGVAPAPEGEKKQKPARKRRMVEEIGVELVVLDLPDLPEDKLAQSVQKLQDLTLRDLEKQEREKAANSLEAFIFETQDKLYQPEYQEVSTEEQREEISGKLSAASTWLEDEGVGATTVMLKEKLAELRKLCQGLFFRVEERKKWPERLSALDNLLNHSSMFLKGARLIPEMDQIFTEVEMTTLEKVINETWAWKNATLAEQAKLPATEKPVLLSKDIEAKMMALDREVQYLLNKAKFTKPRPRPKDKNGTRAEPPLNASASDQGEKVIPPAGQTEDAEPISEPEKVETGSEPGDTEPLELGGPGAEPEQKEQSTGQKRPLKNDEL
